No constants are given. Whether binding was seen depends on the method and setting. In cells and extracts the contact can be indirect. Some entries that bind do so weakly or less than the wild type.
Tests used:
[1] = target: endogenous Smad2 in scleroderma lung and skin primary fibroblasts (human) (UniProt Q15796); test: co-immunoprecipitation from scleroderma lung and skin fibroblasts with C12 antibody, anti-Smad2 immunoblot
[2] = target: endogenous Smad2 in scleroderma lung and skin primary fibroblasts (human) (UniProt Q15796); test: co-immunoprecipitation
[3] = target: endogenous Smad2 in scleroderma lung and skin primary fibroblasts (human) (UniProt Q15796); test: co-immunoprecipitation (FIG. 12C)

Amino acid sequences for entries named in this document (tags omitted). Residues count along the entry.
UniProt Q15796, residues 2-467: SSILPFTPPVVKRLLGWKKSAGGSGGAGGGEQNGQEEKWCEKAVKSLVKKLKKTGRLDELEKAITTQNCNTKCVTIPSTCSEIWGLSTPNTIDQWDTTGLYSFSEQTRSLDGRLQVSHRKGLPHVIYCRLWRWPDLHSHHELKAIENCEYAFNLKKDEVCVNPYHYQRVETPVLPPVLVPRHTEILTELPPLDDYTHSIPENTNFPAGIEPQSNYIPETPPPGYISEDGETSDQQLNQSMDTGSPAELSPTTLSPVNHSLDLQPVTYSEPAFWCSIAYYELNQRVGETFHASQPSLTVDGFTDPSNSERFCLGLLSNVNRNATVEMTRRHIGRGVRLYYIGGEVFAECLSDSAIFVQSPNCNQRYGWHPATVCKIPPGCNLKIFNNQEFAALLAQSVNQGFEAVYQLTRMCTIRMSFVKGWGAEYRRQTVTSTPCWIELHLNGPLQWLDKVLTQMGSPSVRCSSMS

binding [1]: binds
binding [2]: binds
binding [3]: binds
B1: M10 peptide (TRPASFWETS), synthetic (peptide)
peptide: TRPASFWETS
notes: Synthetic peptide from GenScript; A 5,6-TAMRA conjugate (at the N-terminus) was used only for localisation; also called 2 kD C-terminal fragment (M10) of the MET receptor; last 10 amino acids of MET

Reference: US20180215802A1 (MUSC FOUNDATION FOR RESEARCH DEVELOPMENT, published 2018)
